From PMC5402393, “Interactions of AMTN, ODAM and SCPPPQ1 proteins of a specialized basal lamina that attaches epithelial cells to tooth mineral” (Scientific Reports, 2017)
No constants are given. Whether binding was seen depends on the method and setting. For part of these data: Binding seen in cells or lysates may run through a third protein. Some binding calls cover weakened binding; strength is not graded here. For part of these data: Sequences can lack the tags named with a protein. Each block holds one binder with its values, some of them ahead of it.

Key:
[1] = target: T1, rat AMTN, bacterial two-hybrid fusion (rat) (UniProt Q3HS82); assay: two-hybrid; bacterial two-hybrid (BTH): fusions to the T18 and T25 fragments of B. pertussis adenylate cyclase co-expressed in E. coli BTH101 (cya deficient); cAMP-inducible beta-galactosidase activity, X-gal colonies then ONPG quantification
T1 sequence: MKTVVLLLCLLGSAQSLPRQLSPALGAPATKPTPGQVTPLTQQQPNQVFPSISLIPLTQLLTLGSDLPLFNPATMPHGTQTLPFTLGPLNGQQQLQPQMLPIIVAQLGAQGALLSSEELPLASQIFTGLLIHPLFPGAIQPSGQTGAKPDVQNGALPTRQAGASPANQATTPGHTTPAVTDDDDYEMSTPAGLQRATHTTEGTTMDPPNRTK

[2] = target: T2, rat SCPPPQ1, bacterial two-hybrid fusion (rat) (UniProt D6QY17); assay: as above
T2 sequence: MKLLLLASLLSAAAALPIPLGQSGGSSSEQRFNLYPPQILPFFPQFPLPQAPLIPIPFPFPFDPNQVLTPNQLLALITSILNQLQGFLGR

[3] = target: T3, human amelotin (hAMTN), fusion to the T18 or T25 fragment of adenylate cyclase (human) (UniProt Q6UX39); assay: as above
T3 sequence: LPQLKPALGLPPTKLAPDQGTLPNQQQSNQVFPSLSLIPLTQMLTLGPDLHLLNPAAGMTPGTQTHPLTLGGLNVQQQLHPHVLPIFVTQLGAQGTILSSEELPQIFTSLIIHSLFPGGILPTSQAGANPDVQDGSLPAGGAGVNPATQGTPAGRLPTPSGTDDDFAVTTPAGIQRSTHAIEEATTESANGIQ

[4] = target: recombinant rat ODAM (rat) (UniProt Q3HS83); assay: SEC; gel filtration of recombinant rat homologs; data not shown; both purified
[5] = target: recombinant rat AMTN (rat) (UniProt Q3HS82); assay: as above
[6] = target: T4, His-tagged human ODAM (pHT vector), co-expressed in E. coli (human) (UniProt A1E959); assay: co-IP; lysate of E. coli BL21(DE3)-star co-expressing two or three His-tagged proteins (pHT vectors); specific antiserum, Protein A-Sepharose, 4 °C, five PBS rinses, glycine pH 1.8 elution; Western blot with anti-His-tag antibodies
T4 sequence: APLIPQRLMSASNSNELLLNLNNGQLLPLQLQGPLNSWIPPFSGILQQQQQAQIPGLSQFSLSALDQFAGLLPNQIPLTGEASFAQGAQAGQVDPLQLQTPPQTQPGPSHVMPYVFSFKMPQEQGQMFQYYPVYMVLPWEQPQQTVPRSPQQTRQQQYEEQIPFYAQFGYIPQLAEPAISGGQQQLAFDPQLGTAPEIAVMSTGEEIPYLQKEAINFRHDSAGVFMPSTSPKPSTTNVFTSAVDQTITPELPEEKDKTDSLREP

[7] = target: T5, His-tagged human SCPPPQ1 (pHT vector), co-expressed in E. coli (human); assay: as above
T5 sequence: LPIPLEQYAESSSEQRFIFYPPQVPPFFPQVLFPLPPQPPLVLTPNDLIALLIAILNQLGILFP

[8] = target: T6, human secretory calcium-binding phosphoprotein proline-glutamine rich 1 (hSCPPPQ1), fusion to the T18 or T25 fragment of adenylate cyclase (human); assay: two-hybrid; bacterial two-hybrid (BTH): fusions to the T18 and T25 fragments of B. pertussis adenylate cyclase co-expressed in E. coli BTH101 (cya deficient); cAMP-inducible beta-galactosidase activity, X-gal colonies then ONPG quantification
T6 sequence: T5 sequence

[9] = target: T7, His-tagged human AMTN (pHT vector), co-expressed in E. coli (human) (UniProt Q6UX39); assay: co-IP; lysate of E. coli BL21(DE3)-star co-expressing two or three His-tagged proteins (pHT vectors); specific antiserum, Protein A-Sepharose, 4 °C, five PBS rinses, glycine pH 1.8 elution; Western blot with anti-His-tag antibodies
T7 sequence: T3 sequence

[10] = target: rat ODAM, bacterial two-hybrid fusion (rat) (UniProt Q3HS83); assay: two-hybrid; bacterial two-hybrid (BTH): fusions to the T18 and T25 fragments of B. pertussis adenylate cyclase co-expressed in E. coli BTH101 (cya deficient); cAMP-inducible beta-galactosidase activity, X-gal colonies then ONPG quantification
[11] = target: human odontogenic ameloblast-associated protein (hODAM), fusion to the T18 or T25 fragment of adenylate cyclase (human) (UniProt A1E959); assay: as above

binding [1]: binds | binding [2]: binds | binding [3]: binds
B1: rat AMTN, bacterial two-hybrid fusion (protein, UniProt Q3HS82 1-212)
chain: T1 sequence

binding [4]: binds
B2: recombinant rat ODAM (protein, UniProt Q3HS83 16-278)
chain: APLITQRLLSASNSHELLLNLNNGQLLPLQFQSAFNSWIPPFPGLLQQQQQQAQVSGHPQFPLSTLESFAGLFPNQIPFSRQVGFAQGGQAGQPDFSQQQTPSQTQQASPMSYVVPVKVPQDQTQMFQYYPVYMLLPWEQPQQTVTSSPQQTGQQLYEEQIPFYNQFGFVPQQAEPGVPGGQQHLVLDSFVGTAPETPGMPAVEGPLYPQKEPIGFKQDNVGVSTPSTSPKPDTGNFFTSEINPTIAPLLPEQKVNADSLREP

binding [5]: binds
B3: recombinant rat AMTN (protein, UniProt Q3HS82 17-212)
chain: LPRQLSPALGAPATKPTPGQVTPLTQQQPNQVFPSISLIPLTQLLTLGSDLPLFNPATMPHGTQTLPFTLGPLNGQQQLQPQMLPIIVAQLGAQGALLSSEELPLASQIFTGLLIHPLFPGAIQPSGQTGAKPDVQNGALPTRQAGASPANQATTPGHTTPAVTDDDDYEMSTPAGLQRATHTTEGTTMDPPNRTK

binding [8]: binds
B7: human secretory calcium-binding phosphoprotein proline-glutamine rich 1 (hSCPPPQ1), fusion to the T18 or T25 fragment of adenylate cyclase (protein, UniProt A0A411D538 16-79)
chain: T5 sequence

binding [2]: binds
B8: rat SCPPPQ1, bacterial two-hybrid fusion (protein, UniProt D6QY17 1-90)
chain: T2 sequence

binding [1]: binds | binding [2]: binds | binding [10]: binds
B9: rat ODAM, bacterial two-hybrid fusion (protein, UniProt Q3HS83 1-278)
chain: MKIIILLGLIGATSSAPLITQRLLSASNSHELLLNLNNGQLLPLQFQSAFNSWIPPFPGLLQQQQQQAQVSGHPQFPLSTLESFAGLFPNQIPFSRQVGFAQGGQAGQPDFSQQQTPSQTQQASPMSYVVPVKVPQDQTQMFQYYPVYMLLPWEQPQQTVTSSPQQTGQQLYEEQIPFYNQFGFVPQQAEPGVPGGQQHLVLDSFVGTAPETPGMPAVEGPLYPQKEPIGFKQDNVGVSTPSTSPKPDTGNFFTSEINPTIAPLLPEQKVNADSLREP

Further lines, the binder ahead of its results:

B4: His-tagged human AMTN (pHT vector), co-expressed in E. coli (protein, UniProt Q6UX39 17-209)
chain: T3 sequence
binding [6]: binds | binding [7]: binds

B5: human amelotin (hAMTN), fusion to the T18 or T25 fragment of adenylate cyclase (protein, UniProt Q6UX39 17-209)
chain: T3 sequence
binding [8]: binds | binding [3]: binds

B6: His-tagged human SCPPPQ1 (pHT vector), co-expressed in E. coli (protein, UniProt A0A411D538 16-79)
chain: T5 sequence
binding [6]: binds | binding [9]: binds

B10: human odontogenic ameloblast-associated protein (hODAM), fusion to the T18 or T25 fragment of adenylate cyclase (protein, UniProt A1E959 16-279)
chain: T4 sequence
binding [11]: binds | binding [8]: binds | binding [3]: binds

B11: His-tagged human ODAM (pHT vector), co-expressed in E. coli (protein, UniProt A1E959 16-279)
chain: T4 sequence
binding [9]: binds | binding [7]: binds
